The target in the assay is IGF2BP3 (insulin-like growth factor 2 mRNA binding protein 3) (human (endogenous in U251 and A172)) (UniProt O00425). As to the kind of experiment: affinity purification with mass spectrometry; co-IP with IGF2BP3 antibody from GBM cell lysate (co-IP buffer with PMSF, magnetic beads, 4 °C for 12 h, 4 washes); eluted proteins identified by mass spectrometry.

By UniProt entry, the sequences of proteins in these tests, tags left out.
UniProt O00425: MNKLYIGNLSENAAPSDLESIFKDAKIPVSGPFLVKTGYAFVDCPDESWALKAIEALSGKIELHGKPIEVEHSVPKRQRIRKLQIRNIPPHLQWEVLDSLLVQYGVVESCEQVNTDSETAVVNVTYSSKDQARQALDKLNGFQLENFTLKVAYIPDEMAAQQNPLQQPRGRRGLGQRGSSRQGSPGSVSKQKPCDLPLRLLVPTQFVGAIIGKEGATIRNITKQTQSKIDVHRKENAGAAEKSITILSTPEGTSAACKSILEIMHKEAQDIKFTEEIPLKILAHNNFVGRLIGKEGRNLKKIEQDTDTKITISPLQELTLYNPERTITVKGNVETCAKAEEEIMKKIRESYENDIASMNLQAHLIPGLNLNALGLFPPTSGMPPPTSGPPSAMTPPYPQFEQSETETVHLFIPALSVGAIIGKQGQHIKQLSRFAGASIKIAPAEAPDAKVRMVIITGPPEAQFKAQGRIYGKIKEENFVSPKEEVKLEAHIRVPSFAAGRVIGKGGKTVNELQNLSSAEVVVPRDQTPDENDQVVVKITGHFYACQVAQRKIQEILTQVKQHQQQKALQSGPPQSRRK
UniProt Q9Y4D8: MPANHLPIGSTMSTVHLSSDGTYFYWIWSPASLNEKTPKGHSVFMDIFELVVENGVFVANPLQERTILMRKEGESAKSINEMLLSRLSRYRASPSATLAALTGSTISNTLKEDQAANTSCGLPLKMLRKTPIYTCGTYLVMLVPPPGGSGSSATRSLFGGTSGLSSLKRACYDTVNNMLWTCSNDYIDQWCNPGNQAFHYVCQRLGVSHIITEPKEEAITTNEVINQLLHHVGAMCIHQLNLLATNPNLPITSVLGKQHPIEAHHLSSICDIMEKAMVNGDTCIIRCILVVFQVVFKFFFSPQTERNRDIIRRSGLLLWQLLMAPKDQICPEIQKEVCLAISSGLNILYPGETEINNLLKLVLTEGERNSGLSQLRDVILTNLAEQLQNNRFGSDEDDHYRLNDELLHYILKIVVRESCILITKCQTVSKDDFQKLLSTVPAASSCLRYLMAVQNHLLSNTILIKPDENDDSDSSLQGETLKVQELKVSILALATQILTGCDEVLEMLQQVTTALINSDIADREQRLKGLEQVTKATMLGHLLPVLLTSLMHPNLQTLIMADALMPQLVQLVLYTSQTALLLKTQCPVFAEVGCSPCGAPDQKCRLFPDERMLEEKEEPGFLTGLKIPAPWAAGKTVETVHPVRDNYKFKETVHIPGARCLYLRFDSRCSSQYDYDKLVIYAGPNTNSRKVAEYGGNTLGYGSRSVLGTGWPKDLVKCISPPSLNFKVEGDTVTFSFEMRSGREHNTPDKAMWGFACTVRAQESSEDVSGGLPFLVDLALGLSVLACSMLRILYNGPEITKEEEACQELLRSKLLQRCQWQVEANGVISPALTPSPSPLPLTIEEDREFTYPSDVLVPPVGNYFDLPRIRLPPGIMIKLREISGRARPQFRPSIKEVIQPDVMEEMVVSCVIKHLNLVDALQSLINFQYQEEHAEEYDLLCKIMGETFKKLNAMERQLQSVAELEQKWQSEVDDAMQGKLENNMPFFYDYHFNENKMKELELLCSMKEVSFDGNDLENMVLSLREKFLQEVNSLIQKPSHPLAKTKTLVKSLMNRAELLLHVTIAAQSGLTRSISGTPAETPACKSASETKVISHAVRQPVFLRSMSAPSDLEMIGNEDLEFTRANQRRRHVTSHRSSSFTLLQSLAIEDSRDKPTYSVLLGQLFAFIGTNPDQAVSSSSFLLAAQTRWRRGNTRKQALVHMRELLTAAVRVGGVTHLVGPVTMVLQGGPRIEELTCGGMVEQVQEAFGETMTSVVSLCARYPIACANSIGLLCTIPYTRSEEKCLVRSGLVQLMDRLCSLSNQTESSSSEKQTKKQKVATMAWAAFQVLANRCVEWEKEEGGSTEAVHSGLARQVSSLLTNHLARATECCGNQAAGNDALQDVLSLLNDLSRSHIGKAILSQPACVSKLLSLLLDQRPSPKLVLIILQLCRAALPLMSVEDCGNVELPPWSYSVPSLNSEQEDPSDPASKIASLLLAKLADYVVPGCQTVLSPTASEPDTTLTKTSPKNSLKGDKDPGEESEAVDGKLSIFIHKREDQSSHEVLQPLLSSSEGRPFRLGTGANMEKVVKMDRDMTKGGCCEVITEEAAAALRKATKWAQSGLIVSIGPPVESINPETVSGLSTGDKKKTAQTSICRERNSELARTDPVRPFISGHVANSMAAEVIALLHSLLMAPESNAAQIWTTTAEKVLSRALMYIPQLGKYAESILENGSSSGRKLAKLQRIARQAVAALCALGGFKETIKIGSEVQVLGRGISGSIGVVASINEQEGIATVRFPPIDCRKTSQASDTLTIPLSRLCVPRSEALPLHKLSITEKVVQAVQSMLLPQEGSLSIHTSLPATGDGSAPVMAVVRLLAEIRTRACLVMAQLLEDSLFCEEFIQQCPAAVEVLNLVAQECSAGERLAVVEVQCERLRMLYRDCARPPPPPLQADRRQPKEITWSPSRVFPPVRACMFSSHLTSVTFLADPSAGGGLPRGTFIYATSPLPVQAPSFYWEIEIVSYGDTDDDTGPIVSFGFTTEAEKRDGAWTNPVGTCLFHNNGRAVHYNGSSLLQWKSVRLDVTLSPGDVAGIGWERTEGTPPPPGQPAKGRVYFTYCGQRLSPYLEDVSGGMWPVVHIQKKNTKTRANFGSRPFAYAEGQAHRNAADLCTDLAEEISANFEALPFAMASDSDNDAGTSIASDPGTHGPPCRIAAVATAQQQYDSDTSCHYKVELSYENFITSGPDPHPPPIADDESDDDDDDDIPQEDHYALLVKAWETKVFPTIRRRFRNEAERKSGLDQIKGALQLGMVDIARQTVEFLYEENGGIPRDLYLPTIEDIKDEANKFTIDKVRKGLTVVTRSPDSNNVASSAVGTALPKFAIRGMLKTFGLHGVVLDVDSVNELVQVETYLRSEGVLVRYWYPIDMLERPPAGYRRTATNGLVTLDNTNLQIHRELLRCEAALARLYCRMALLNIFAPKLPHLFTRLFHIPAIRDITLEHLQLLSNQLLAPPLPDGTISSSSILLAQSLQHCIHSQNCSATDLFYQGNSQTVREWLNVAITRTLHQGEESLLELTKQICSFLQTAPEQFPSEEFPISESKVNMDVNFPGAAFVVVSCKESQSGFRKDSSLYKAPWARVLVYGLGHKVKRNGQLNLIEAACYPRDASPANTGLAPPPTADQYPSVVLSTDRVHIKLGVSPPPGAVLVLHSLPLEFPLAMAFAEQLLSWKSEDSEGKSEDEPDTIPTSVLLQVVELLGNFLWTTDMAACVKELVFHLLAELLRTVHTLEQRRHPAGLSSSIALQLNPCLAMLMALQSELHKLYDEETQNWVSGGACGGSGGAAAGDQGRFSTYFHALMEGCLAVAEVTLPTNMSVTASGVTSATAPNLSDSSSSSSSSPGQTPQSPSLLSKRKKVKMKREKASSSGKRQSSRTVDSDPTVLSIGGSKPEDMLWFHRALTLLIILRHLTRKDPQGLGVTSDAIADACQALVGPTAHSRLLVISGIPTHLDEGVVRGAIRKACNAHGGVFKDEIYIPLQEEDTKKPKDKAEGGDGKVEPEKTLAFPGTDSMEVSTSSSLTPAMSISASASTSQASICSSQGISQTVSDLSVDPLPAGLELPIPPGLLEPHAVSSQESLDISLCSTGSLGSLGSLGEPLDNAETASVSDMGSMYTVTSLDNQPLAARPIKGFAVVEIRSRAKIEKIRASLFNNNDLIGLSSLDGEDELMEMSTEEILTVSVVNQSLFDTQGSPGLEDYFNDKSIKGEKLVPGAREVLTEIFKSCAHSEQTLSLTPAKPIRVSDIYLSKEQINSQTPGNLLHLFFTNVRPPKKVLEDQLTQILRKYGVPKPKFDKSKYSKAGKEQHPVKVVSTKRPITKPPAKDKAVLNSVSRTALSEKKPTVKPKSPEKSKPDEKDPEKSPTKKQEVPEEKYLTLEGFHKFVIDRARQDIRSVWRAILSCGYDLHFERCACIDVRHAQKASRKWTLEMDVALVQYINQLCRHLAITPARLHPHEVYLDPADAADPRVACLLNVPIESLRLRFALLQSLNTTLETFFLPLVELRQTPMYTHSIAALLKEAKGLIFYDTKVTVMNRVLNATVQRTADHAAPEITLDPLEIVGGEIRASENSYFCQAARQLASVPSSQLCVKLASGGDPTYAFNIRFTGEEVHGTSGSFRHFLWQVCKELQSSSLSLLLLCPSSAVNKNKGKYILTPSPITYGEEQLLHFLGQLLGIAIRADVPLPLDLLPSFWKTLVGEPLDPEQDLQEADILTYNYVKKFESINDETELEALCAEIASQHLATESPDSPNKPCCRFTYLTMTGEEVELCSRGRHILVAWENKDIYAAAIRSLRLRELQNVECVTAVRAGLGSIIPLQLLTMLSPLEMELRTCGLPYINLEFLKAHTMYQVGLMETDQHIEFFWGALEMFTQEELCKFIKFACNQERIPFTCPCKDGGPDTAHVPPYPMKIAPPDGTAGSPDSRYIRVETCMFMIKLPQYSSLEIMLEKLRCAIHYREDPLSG

Results are given in words; binding and its absence hold for the method and conditions named. In cells and extracts the contact can be indirect. Here binding means that the protein was enriched with, or labelled near, the bait; the list need not be complete.

As to “HECTD4 (from UniProt Q9Y4D8 1-3996) (enzyme)”, the binding entry is “binds”.

The values are drawn from article PMC8759291.
